From patent publication US20060233743A1, “Compositions and methods of therapy” (priority 2002, published 2006)
At least one structure is not confirmed: it was looked up by name or label, or the drawing left a doubt.

System: U937 cells
Experiment: Example 4: IL-10 mRNA induction in U937 cells by agents which raise cAMP, 48 hours
Format: cell-based, human
Conditions: in the presence of GMCSF, compared to forskolin or GMCSF alone

SMILES: C=C[C@@]1(C)CC(=O)[C@]2(O)[C@@]3(C)[C@@H](O)CCC(C)(C)[C@@H]3[C@H](O)[C@H](OC(C)=O)[C@@]2(C)O1 [forskolin, 7β-Acetoxy-8,13-epoxy-1α,6β,9α-trihydroxylabd-14-en-11-one]
- stimulation of IL-10 expression: increased strikingly
